This note sets out measurements from the supplement of paper PMC4604168 (melanoma cell lines).

The list shows a part of the results. Single values are uncertain, as repeats are few or missing.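 Cells were imaged in 1,536-well plates, and nuclei stained with an antibody against cleaved PARP were counted against all DNA-stained nuclei to give the apoptosis fraction. Screening doses were chosen to leave most cells alive, and resting and induced cleaved-PARP levels differ strongly between cell lines.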

This experiment deals with LOXIMVI. The experiment can be described thus: cleaved PARP positive nuclei fraction relative to DMSO control; melanoma cells; higher = more apoptosis. As to conditions: library dose: low library concentration; 72 h.
For `Nc1ncn([C@H]2C[C@H](O)[C@@H](CO)O2)c(=O)n1` [decitabine] + Cc1cc(N2CCOCC2)cc2[nH]c(-c3c(NC[C@@H](O)c4cccc(Cl)c4)cc[nH]c3=O)nc12 [BMS536924] (first compound 0.1 µM, partner dose 0.2 µM), the “cleaved PARP positive nuclei fraction” value came out at 125%. The same measure for `Cn1c(=O)n(-c2ccc(C(C)(C)C#N)cc2)c2c3cc(-c4cnc5ccccc5c4)ccc3ncc21` + NCC(=O)Nc1ccc(-n2nc(C(F)(F)F)cc2-c2ccc3c(ccc4ccccc43)c2)cc1 [OSU03012] (first compound 0.004 µM, partner dose 1 µM): 105%; for `CS(=O)(=O)CCNCc1ccc(-c2ccc3ncnc(Nc4ccc(OCc5cccc(F)c5)c(Cl)c4)c3c2)o1` [lapatinib] + O=C(Nc1cccc(Cl)c1)Nc1ncc(CCNc2ncnc3ccsc23)s1 [SNS314] (first compound 0.8 µM, partner dose 0.0008 µM): 169%; for `CN1CCN(c2ccc3nc(-c4c(N)c5c(F)cccc5[nH]c4=O)[nH]c3c2)CC1` [Dovitinib] + CN(C)S(=O)(=O)c1ccc2c(c1)/C(=C/c1cc3c([nH]1)CCCC3)C(=O)N2 [SU6656] (first compound 0.1 µM, partner dose 0.4 µM): 102%. The same measure for `C[C@@H](Oc1cc(-c2cnn(C3CCNCC3)c2)cnc1N)c1c(Cl)ccc(F)c1Cl` [Crizotinib] + Cn1cncc1[C@@](N)(c1ccc(Cl)cc1)c1ccc2c(c1)c(-c1cccc(Cl)c1)cc(=O)n2C [tipifarnib] (first compound 0.2 µM, partner dose 0.01 µM): 148%; for `CO[C@H]1C[C@@H]2CC[C@@H](C)[C@@](O)(O2)C(=O)C(=O)N2CCCC[C@H]2C(=O)O[C@H]([C@H](C)C[C@@H]2CC[C@@H](OCCO)[C@H](OC)C2)CC(=O)[C@H](C)/C=C(\C)[C@@H](O)[C@@H](OC)C(=O)[C@H](C)C[C@H](C)/C=C/C=C/C=C/1C` [everolimus] + O=C(Nc1cccc(Cl)c1)Nc1ncc(CCNc2ncnc3ccsc23)s1 [SNS314] (first compound 0.02 µM, partner dose 0.0008 µM): 47.5%.

`O=C(O)c1ccc2c(c1)nc(Nc1cccc(Cl)c1)c1ccncc12` + NC(=O)Nc1cc(-c2cccc(F)c2)sc1C(=O)N[C@H]1CCCNC1 [AZD7762] (first compound 0.4 µM, partner dose 0.02 µM): the “cleaved PARP positive nuclei fraction” value came out at 167%. For the molecule `Cn1c(=O)n(-c2ccc(C(C)(C)C#N)cc2)c2c3cc(-c4cnc5ccccc5c4)ccc3ncc21` + O=C(O)c1ccc(-c2c[nH]c3ncc(-c4ccccc4)cc23)cc1C1CCCC1 [GSK650394] (first compound 0.004 µM, partner dose 0.16 µM), the “cleaved PARP positive nuclei fraction” value stood at 44%. The same measure for `O=C(O)c1ccc2c(c1)nc(Nc1cccc(Cl)c1)c1ccncc12` + O=C(O)c1ccc(-c2c[nH]c3ncc(-c4ccccc4)cc23)cc1C1CCCC1 [GSK650394] (first compound 0.4 µM, partner dose 0.16 µM): 97.1%; for `CC(C)C[C@H](NC(=O)[C@H](Cc1ccccc1)NC(=O)c1cnccn1)B(O)O` [Bortezomib] + O=C(CCCCCCC(=O)Nc1ccccc1)NO [vorinostat] (first compound 0.001 µM, partner dose 0.08 µM): 60.1%; for `O=C(O)c1ccc2c(c1)nc(Nc1cccc(Cl)c1)c1ccncc12` + O=C(Nc1cccc(Cl)c1)Nc1ncc(CCNc2ncnc3ccsc23)s1 [SNS314] (first compound 0.4 µM, partner dose 0.0008 µM): 38.9%. In the case of `Nc1nc(F)nc2c1ncn2[C@@H]1O[C@H](CO)[C@@H](O)[C@@H]1O` [fludarabine] + C=CCn1c(=O)c2cnc(Nc3ccc(N4CCN(C)CC4)cc3)nc2n1-c1cccc(C(C)(C)O)n1 [MK1775] (first compound 0.2 µM, partner dose 0.02 µM), the “cleaved PARP positive nuclei fraction” value came out at 37.6%.

As for `Nc1ccn([C@@H]2O[C@H](CO)[C@@H](O)C2(F)F)c(=O)n1` [gemcitabine] + COc1cc(Nc2ncc(F)c(Nc3ccc4c(n3)NC(=O)C(C)(C)O4)n2)cc(OC)c1OC [Tamatinib] (first compound 0.0004 µM, partner dose 0.4 µM), the “cleaved PARP positive nuclei fraction” value stood at 230%. For the molecule `Cn1c(=O)n(-c2ccc(C(C)(C)C#N)cc2)c2c3cc(-c4cnc5ccccc5c4)ccc3ncc21` + COc1cc2c(Oc3ccc4[nH]c(C)cc4c3F)ncnc2cc1OCCCN1CCCC1 [cediranib] (first compound 0.004 µM, partner dose 0.4 µM), the “cleaved PARP positive nuclei fraction” value was 31.3%. As for `Cc1cc(Nc2cc(N3CCN(C)CC3)nc(/C=C/c3ccccc3)n2)n[nH]1` + NC(=O)Nc1cc(-c2cccc(F)c2)sc1C(=O)N[C@H]1CCCNC1 [AZD7762] (first compound 0.04 µM, partner dose 0.02 µM), the “cleaved PARP positive nuclei fraction” value came to 51.1%.

With `Nc1nc(F)nc2c1ncn2[C@@H]1O[C@H](CO)[C@@H](O)[C@@H]1O` [fludarabine] + O=C(Nc1cccc(Cl)c1)Nc1ncc(CCNc2ncnc3ccsc23)s1 [SNS314] (first compound 0.2 µM, partner dose 0.0008 µM), the “cleaved PARP positive nuclei fraction” value was 41.4%. The same measure for `CS(=O)(=O)CCNCc1ccc(-c2ccc3ncnc(Nc4ccc(OCc5cccc(F)c5)c(Cl)c4)c3c2)o1` [lapatinib] + CN(NC(=O)CC(=O)NN(C)C(=S)c1ccccc1)C(=S)c1ccccc1 [STA4783] (first compound 0.8 µM, partner dose 0.006 µM): 110%; for `CC(C)C[C@H](NC(=O)[C@H](Cc1ccccc1)NC(=O)c1cnccn1)B(O)O` [Bortezomib] + CO[C@@H]1[C@H](N(C)C(=O)c2ccccc2)C[C@H]2O[C@]1(C)n1c3ccccc3c3c4c(c5c6ccccc6n2c5c31)C(=O)NC4 [Midostaurin] (first compound 0.001 µM, partner dose 0.08 µM): 156%. The same measure for `C[C@@H](Oc1cc(-c2cnn(C3CCNCC3)c2)cnc1N)c1c(Cl)ccc(F)c1Cl` [Crizotinib] + O=C(O)c1ccc(-c2c[nH]c3ncc(-c4ccccc4)cc23)cc1C1CCCC1 [GSK650394] (first compound 0.2 µM, partner dose 0.16 µM): 37.8%; for `CS(=O)(=O)CCNCc1ccc(-c2ccc3ncnc(Nc4ccc(OCc5cccc(F)c5)c(Cl)c4)c3c2)o1` [lapatinib] + NC(=O)Nc1cc(-c2cccc(F)c2)sc1C(=O)N[C@H]1CCCNC1 [AZD7762] (first compound 0.8 µM, partner dose 0.02 µM): 81.7%.

`CNC(=O)c1cc(Oc2ccc(NC(=O)Nc3ccc(Cl)c(C(F)(F)F)c3)cc2)ccn1` [sorafenib] + NC(=O)Nc1cc(-c2cccc(F)c2)sc1C(=O)N[C@H]1CCCNC1 [AZD7762] (first compound 0.4 µM, partner dose 0.02 µM): the “cleaved PARP positive nuclei fraction” value came to 121%. The same measure for `CN1CCN(c2ccc3nc(-c4c(N)c5c(F)cccc5[nH]c4=O)[nH]c3c2)CC1` [Dovitinib] + NCC(=O)Nc1ccc(-n2nc(C(F)(F)F)cc2-c2ccc3c(ccc4ccccc43)c2)cc1 [OSU03012] (first compound 0.1 µM, partner dose 1 µM): 141%; for `C=C(c1ccc(C(=O)O)cc1)c1cc2c(cc1C)C(C)(C)CCC2(C)C` [Bexarotene] + NC(=O)Nc1cc(-c2cccc(F)c2)sc1C(=O)N[C@H]1CCCNC1 [AZD7762] (first compound 2 µM, partner dose 0.02 µM): 132%. Consider `Cn1c(=O)n(-c2ccc(C(C)(C)C#N)cc2)c2c3cc(-c4cnc5ccccc5c4)ccc3ncc21` + Cn1cncc1[C@@](N)(c1ccc(Cl)cc1)c1ccc2c(c1)c(-c1cccc(Cl)c1)cc(=O)n2C [tipifarnib] (first compound 0.004 µM, partner dose 0.01 µM), for which the “cleaved PARP positive nuclei fraction” value is 145%.

On to `C[C@@H](Oc1cc(-c2cnn(C3CCNCC3)c2)cnc1N)c1c(Cl)ccc(F)c1Cl` [Crizotinib] + CN(NC(=O)CC(=O)NN(C)C(=S)c1ccccc1)C(=S)c1ccccc1 [STA4783] (first compound 0.2 µM, partner dose 0.006 µM), for which the “cleaved PARP positive nuclei fraction” value stood at 228%.

On to `CC(C)C[C@H](NC(=O)[C@H](Cc1ccccc1)NC(=O)c1cnccn1)B(O)O` [Bortezomib] + COc1cc2c(Oc3ccc4[nH]c(C)cc4c3F)ncnc2cc1OCCCN1CCCC1 [cediranib] (first compound 0.001 µM, partner dose 0.4 µM), for which the “cleaved PARP positive nuclei fraction” value amounted to 55.5%.

As for `Cc1cc(Nc2cc(N3CCN(C)CC3)nc(/C=C/c3ccccc3)n2)n[nH]1` + Cc1cc(N2CCOCC2)cc2[nH]c(-c3c(NC[C@@H](O)c4cccc(Cl)c4)cc[nH]c3=O)nc12 [BMS536924] (first compound 0.04 µM, partner dose 0.2 µM), the “cleaved PARP positive nuclei fraction” value came out at 25.5%. Turning to `C[C@@H](Oc1cc(-c2cnn(C3CCNCC3)c2)cnc1N)c1c(Cl)ccc(F)c1Cl` [Crizotinib] + CC1(C)NC(=O)N(c2ccc([N+](=O)[O-])c(C(F)(F)F)c2)C1=O [nilutamide] (first compound 0.2 µM, partner dose 1 µM), the “cleaved PARP positive nuclei fraction” value turned out to be 21%.

As to `Cn1c(=O)n(-c2ccc(C(C)(C)C#N)cc2)c2c3cc(-c4cnc5ccccc5c4)ccc3ncc21` + NC(=O)Nc1cc(-c2cccc(F)c2)sc1C(=O)N[C@H]1CCCNC1 [AZD7762] (first compound 0.004 µM, partner dose 0.02 µM), the “cleaved PARP positive nuclei fraction” value is 168%.
